Article PMC8100072
These are yes or no findings as the source states them, for the method shown. In cells and extracts the contact can be indirect. Some results given as binding are weak or reduced against the parent protein; the word gives no strength.

By UniProt entry, the sequences of proteins in these tests, tags left out.
UniProt O81445: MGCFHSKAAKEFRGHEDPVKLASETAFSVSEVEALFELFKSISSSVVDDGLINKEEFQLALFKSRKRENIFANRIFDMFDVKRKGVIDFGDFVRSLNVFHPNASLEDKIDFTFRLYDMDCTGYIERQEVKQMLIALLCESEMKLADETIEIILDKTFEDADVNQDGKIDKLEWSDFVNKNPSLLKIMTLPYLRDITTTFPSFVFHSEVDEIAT

Molecular target: Calcineurin B-like protein 1 (CBL1), BiFC positive control (UniProt O81445)
Experiment: split reporter; BiFC with YFP^N-ter(1-173aa) and YFP^C-ter(156-239aa) fusions coexpressed in onion epidermal cells by Agrobacterium-mediated transformation; confocal microscopy 48 h after transformation; unstressed

B1: CIPK24, BiFC positive control (protein, UniProt Q9LDI3 1-446)
chain: MTKKMRRVGKYEVGRTIGEGTFAKVKFARNTDTGDNVAIKIMAKSTILKNRMVDQIKREISIMKIVRHPNIVRLYEVLASPSKIYIVLEFVTGGELFDRIVHKGRLEESESRKYFQQLVDAVAHCHCKGVYHRDLKPENLLLDTNGNLKVSDFGLSALPQEGVELLRTTCGTPNYVAPEVLSGQGYDGSAADIWSCGVILFVILAGYLPFSETDLPGLYRKINAAEFSCPPWFSAEVKFLIHRILDPNPKTRIQIQGIKKDPWFRLNYVPIRAREEEEVNLDDIRAVFDGIEGSYVAENVERNDEGPLMMNAFEMITLSQGLNLSALFDRRQDFVKRQTRFVSRREPSEIIANIEAVANSMGFKSHTRNFKTRLEGLSSIKAGQLAVVIEIYEVAPSLFMVDVRKAAGETLEYHKFYKKLCSKLENIIWRATEGIPKSEILRTITF
B1 was tested, and the binding was “binds”.
